Results: publication doi:10.1101/2025.04.25.650293

Protein sequences, listed by entry. Tags and fused reporters are not part of them.
UniProt Q13547: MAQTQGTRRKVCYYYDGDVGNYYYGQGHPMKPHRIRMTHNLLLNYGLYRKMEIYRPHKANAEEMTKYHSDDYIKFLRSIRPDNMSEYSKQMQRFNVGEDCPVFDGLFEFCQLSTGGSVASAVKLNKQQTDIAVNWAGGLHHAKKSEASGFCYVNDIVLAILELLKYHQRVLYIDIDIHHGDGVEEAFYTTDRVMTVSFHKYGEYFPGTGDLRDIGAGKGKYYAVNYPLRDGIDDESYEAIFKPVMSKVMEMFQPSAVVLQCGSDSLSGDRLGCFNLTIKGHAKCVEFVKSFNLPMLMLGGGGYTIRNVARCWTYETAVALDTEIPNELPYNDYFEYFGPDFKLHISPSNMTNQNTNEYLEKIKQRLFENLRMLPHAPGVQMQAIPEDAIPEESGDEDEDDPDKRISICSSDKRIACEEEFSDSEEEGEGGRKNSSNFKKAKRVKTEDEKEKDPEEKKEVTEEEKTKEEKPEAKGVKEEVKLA
UniProt Q92769: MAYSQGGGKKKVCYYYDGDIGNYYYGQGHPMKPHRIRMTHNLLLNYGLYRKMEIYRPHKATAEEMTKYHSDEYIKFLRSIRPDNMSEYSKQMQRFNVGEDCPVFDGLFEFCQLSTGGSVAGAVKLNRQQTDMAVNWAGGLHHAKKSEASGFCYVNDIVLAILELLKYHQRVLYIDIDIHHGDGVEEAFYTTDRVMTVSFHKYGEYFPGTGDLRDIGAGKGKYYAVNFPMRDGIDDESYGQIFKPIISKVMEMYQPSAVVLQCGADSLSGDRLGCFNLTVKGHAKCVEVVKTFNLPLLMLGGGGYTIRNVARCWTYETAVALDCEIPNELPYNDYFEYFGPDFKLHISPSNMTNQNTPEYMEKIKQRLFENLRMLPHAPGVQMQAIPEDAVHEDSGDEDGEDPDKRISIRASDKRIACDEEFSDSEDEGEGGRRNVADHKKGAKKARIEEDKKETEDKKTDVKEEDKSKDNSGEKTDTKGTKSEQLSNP

T1: ELMSAN1 (human (endogenous in 143B)) (UniProt Q6PJG2)
T1 sequence: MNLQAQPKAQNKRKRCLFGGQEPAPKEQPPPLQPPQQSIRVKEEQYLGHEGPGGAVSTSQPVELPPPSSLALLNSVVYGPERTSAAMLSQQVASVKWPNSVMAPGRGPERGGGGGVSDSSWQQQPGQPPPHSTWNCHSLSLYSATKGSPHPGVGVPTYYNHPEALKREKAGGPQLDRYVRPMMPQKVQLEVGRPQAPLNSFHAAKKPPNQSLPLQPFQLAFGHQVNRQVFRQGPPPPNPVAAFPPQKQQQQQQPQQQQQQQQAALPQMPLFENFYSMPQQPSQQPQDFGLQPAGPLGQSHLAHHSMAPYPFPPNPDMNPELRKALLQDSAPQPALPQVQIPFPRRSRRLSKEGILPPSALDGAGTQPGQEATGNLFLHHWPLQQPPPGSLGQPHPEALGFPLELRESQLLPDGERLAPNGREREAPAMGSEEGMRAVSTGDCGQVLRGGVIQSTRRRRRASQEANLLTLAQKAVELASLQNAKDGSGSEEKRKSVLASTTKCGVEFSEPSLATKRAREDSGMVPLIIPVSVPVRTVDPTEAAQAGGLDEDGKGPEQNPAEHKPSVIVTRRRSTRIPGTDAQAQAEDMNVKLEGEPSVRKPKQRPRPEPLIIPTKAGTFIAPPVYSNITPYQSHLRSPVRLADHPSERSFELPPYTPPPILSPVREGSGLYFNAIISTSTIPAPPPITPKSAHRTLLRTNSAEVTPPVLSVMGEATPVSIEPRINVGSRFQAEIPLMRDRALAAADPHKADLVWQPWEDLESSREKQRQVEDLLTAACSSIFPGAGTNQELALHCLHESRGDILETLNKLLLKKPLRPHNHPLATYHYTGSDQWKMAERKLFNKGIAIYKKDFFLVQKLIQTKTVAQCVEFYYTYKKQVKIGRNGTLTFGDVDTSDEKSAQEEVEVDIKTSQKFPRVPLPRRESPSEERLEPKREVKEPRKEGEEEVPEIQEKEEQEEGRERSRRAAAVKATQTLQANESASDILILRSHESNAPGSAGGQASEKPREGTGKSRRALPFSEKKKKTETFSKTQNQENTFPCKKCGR

B1: DLAT (dihydrolipoamide S-acetyltransferase, the PDC E2 subunit) (protein, UniProt P10515 87-647)
chain: SLPPHQKVPLPSLSPTMQAGTIARWEKKEGDKINEGDLIAEVETDKATVGFESLEECYMAKILVAEGTRDVPIGAIICITVGKPEDIEAFKNYTLDSSAAPTPQAAPAPTPAATASPPTPSAQAPGSSYPPHMQVLLPALSPTMTMGTVQRWEKKVGEKLSEGDLLAEIETDKATIGFEVQEEGYLAKILVPEGTRDVPLGTPLCIIVEKEADISAFADYRPTEVTDLKPQVPPPTPPPVAAVPPTPQPLAPTPSAPCPATPAGPKGRVFVSPLAKKLAVEKGIDLTQVKGTGPDGRITKKDIDSFVPSKVAPAPAAVVPPTGPGMAPVPTGVFTDIPISNIRRVIAQRLMQSKQTIPHYYLSIDVNMGEVLLVRKELNKILEGRSKISVNDFIIKASALACLKVPEANSSWMDTVIRQNHVVDVSVAVSTPAGLITPIVFNAHIKGVETIANDVVSLATKAREGKLQPHEFQGGTFTISNLGMFGIKNFSAIINPPQACILAIGASEDKLVPADNEKGFDVASMMSVTLSCDHRVVDGAVGAQWLAEFRKYLEKPITMLL

Columns and labels:
[1] = molecular target: T1, ELMSAN1 (human (endogenous in 143B)); test: affinity purification with mass spectrometry
[2] = molecular target: T1, ELMSAN1 (human (endogenous in 143B)); test: affinity purification with mass spectrometry; remark: listed apart in the source

Molecule | binding [1] | binding [2]
HDAC1 (from UniProt Q13547 1-482) | binds | –
HDAC2 (from UniProt Q92769 1-488) | binds | –
B1 | – | binds

Where two headings read alike, the source gives them in different places. No constants are given. Whether binding was seen depends on the method and setting. Binding seen in cells or lysates may run through a third protein. These calls come from enrichment with a bait or labelling near it, and not all partners need be listed.
